Consider one compound from patent US20220056075A1, “METHOD FOR TREATING OPIOID USE DISORDER” (THE ADMINISTRATORS OF THE TULANE EDUCATIONAL FUND, priority 2019, published 2022).

Assay [1] relates to rats trained to discriminate morphine from vehicle. The assay is described as follows: Drug discrimination (DD), morphine-trained rats. The note with it: for ED50: Rattus norvegicus. How it is done: Drug Discrimination (DD): Rats were food deprived to approximately 85% of the weight of free feeding cohorts to establish operant responding for 45 mg food pellets (Bioserve, Frenchtown, N.J.) in standard operant chambers (MED Associates, St. Albans, Vt.). Rats were fed 10-20 g of standard food after daily DD sessions, and ˜3× the daily amount on weekends to maintain appropriate weight. DD consisted of 3 phases (Krivsky et al., 2006). In phase 1, rats were trained to lever press for food at a fixed ratio (FR) level 1 (i.e., 1 lever press=1 food pellet) using 2 levers with stimulus lights located above each lever and a food hopper between the levers during 120 min sessions. Responding on either lever extinguished the light and delivered a food pellet. […] Once >20 pellets were earned at FR9, sessions were shortened to 20 min and response requirements were set at FR10 and the left or right lever reinforced responding on alternate days. Once >20 pellets were earned on each lever at FR10, rats started phase 2 of DD training.
Only responses on the correct lever were reinforced and responses on the incorrect lever reset the response requirement on the correct lever. Criteria to move to phase 3 were as follows: >20 pellets per session, >90% injection appropriate lever responding, and <9 responses on the incorrect lever before the first food pellet reward.
Two paradigms were utilized to generate substitution curves: cumulative within-session and bolus between-session injections.
During substitution tests, both levers actively delivered food at an FR10 schedule. […] Doses were increased in ¼ log increments, with injections every 20 min followed 15 minutes later by DD sessions lasting 5 min each. […] The advantage of this procedure was that an entire dose-response was generated in one session.
Statistics: PRISM software (GraphPad, San Diego, Calif.) was used for one-way analysis of variance (ANOVA) with Newman-Keuls post-hoc comparisons to compare CPP groups, locomotor effects, hot plate, and DD response rates.

For another assay, the system named is rats. Particulars: data reproduced from Zadina et al. (2016); cited from earlier work.

Like-named read-outs stand apart in the source and are kept apart here.

As usually defined, the ED50 is the midpoint of the dose-response relation. For the compound `CN1CC[C@]23c4c5ccc(O)c4O[C@H]2[C@@H](O)C=C[C@H]3[C@H]1C5.O=S(=O)(O)O` [Morphine, Morphine sulfate, reference compound], the ED50 came out at 0.879 mg/kg in assay [1] (iv, read-out: ED50 (morphine-appropriate responding), bolus injections made between sessions, i.v., value (SEM)); 0.701 mg/kg in assay [1] (iv, read-out: ED50 (morphine-appropriate responding), cumulative injections within a single session, i.v., value (SEM)); 1.25 mg/kg in assay [1] (sc, read-out: ED50, responding on the drug-paired lever, subcutaneous injection). Further, the “ED50 (morphine-appropriate responding)” value in assay [1] (bolus injections made between sessions, i.v., value (SEM), sulfate) came out at 0.88 mg/kg. Also, the “antinociceptive ED50” value in the assay with rats is 1.27 mg/kg.
